Experimental data taken from patent US20220160802A1, “METHODS AND COMPOSITIONS FOR PROMOTING HEALTH IN A SUBJECT” (COMMONWEALTH SCIENTIFIC AND INDUSTRIAL RESEARCH ORGANISATION, priority 2019, published 2022).

Assay: Untargeted LC-MS metabolite analysis of fermented and non-fermented broccoli puree
Conditions: fermented vs non-fermented broccoli puree

Q: For Oc1ccccc1O [Catechol], which FC is on record?
A: 4.0005

Q: With COc1cc(-c2cc(=O)c3c(O)cc(OC4O[C@H](COC(=O)CC(=O)O)[C@@H](O)[C@H](O)[C@H]4O)cc3o2)ccc1O (stereo partly shown) [Chrysoeriol 7-O-6″-malonyl-glucoside] as the compound, how does the FC read?
A: 4.8949

Q: For COc1cc(-c2cc(=O)c3c(O)c(OC)c(OC)cc3o2)ccc1O [Cirsilineol], which FC is on record?
A: 2.6151

Q: For O=C([O-])C(=O)OC(=O)C(=O)OCC1OC(Oc2cc3c(O)cc(O)cc3[o+]c2-c2ccc(O)c(O)c2)C(O)C(O)C1O (stereo not shown) [Cyanidin 3-O-6″-dioxalyl-glucoside], which FC is on record?
A: 9.9207

Q: With O=C(C=Cc1ccc(O)cc1)OC[C@H]1O[C@@H](Oc2cc3c(O)cc(O)cc3[o+]c2-c2ccc(O)c(O)c2)[C@H](O)[C@@H](O)[C@@H]1O [Cyanidin 3-O-6″-p-coumaroyl-glucoside] as the compound, how does the FC read?
A: 271.87

Q: Which FC does the source give for Oc1cc(O)c2cc(O[C@@H]3OC[C@H](O)[C@H](O)[C@H]3O)c(-c3ccc(O)c(O)c3)[o+]c2c1 [Cyanidin 3-O-arabinoside] here?
A: 16.098

Q: For C[C@@H]1O[C@@H](OC[C@H]2O[C@@H](Oc3cc4c(O)cc(O)cc4[o+]c3-c3ccc(O)c(O)c3)[C@H](O)[C@@H](O)[C@@H]2O)[C@H](O)[C@H](O)[C@H]1O [Cyanidin 3-O-rutinoside], which FC is on record?
A: 361.03

Q: Which FC does the source give for O=P(O)(O)OC[C@@H](O)[C@@H](O)c1cnc[nH]1 [D-erythro-imidazole-glycerol-phosphate] here?
A: 10.288

Q: For O=C[C@H](O)[C@H](O)COP(=O)(O)O [D-erythrose 4-phosphate], which FC is on record?
A: 3.7463

Q: Which FC does the source give for COc1ccc(CC2COC(=O)C2Cc2ccc(OC)c(OC)c2)cc1OC (stereo not shown) [Dimethylmatairesinol] here?
A: 0.4348

Q: Which FC does the source give for CC/C=C/CO [E-2-pentenol] here?
A: 3.5473

Q: For CSCCCCCC/C=N/O [E-7-methylthioheptanaldoxime], which FC is on record?
A: 2.2972

Q: With O/N=C/Cc1ccccc1 [E-phenylacetaldoxime] as the compound, how does the FC read?
A: 2.1608

Q: For O=c1oc2c(O)c(O[C@@H]3OC[C@H](O)[C@H](O)[C@H]3O)cc3c(=O)oc4c(O)c(O)cc1c4c23 [Ellagic acid arabinoside], which FC is on record?
A: 42.956

Q: For Oc1cc2c(cc1[C@@H]1OC[C@H]3[C@@H]1CO[C@@H]3c1ccc3c(c1)OCO3)OCO2 [Episesaminol], which FC is on record?
A: 2.4077

Q: For COc1cc(/C=C/C(=O)C(O)(C(=O)O)C(O)C(=O)O)ccc1O (stereo not shown) [Feruloyl tartaric acid], which FC is on record?
A: 5.5489

Q: Which FC does the source give for O=C(O)c1cc(O)c(O[C@@H]2O[C@H](CO)[C@@H](O)[C@H](O)[C@H]2O)c(O)c1 [Gallic acid 4-O-glucoside] here?
A: 2.515

Q: Which FC does the source give for COc1ccc(-c2cc(=O)c3c(O)c(OC)c(OC)c(OC)c3o2)cc1 [Gardenin B] here?
A: 4.3888

Q: Which FC does the source give for OCCc1ccc(OC2OC(CO)C(O)C(O)C2O)c(O)c1 (stereo not shown) [Hydroxytyrosol 4-O-glucoside] here?
A: 28.971

Q: For COc1cc(-c2oc3cc(O[C@@H]4O[C@@H](C)[C@H](O)[C@@H](O)[C@H]4O)cc(O)c3c(=O)c2O[C@@H]2O[C@H](CO)[C@@H](O)[C@H](O)[C@H]2O)ccc1O [Isorhamnetin 3-O-glucoside 7-O-rhamnoside], which FC is on record?
A: 0.1536

Q: Which FC does the source give for COc1cc(-c2oc3cc(O)cc(O)c3c(=O)c2O)ccc1O [Isorhamnetin] here?
A: 2.2605

Q: With COc1ccc(-c2oc3cc(O)cc(O)c3c(=O)c2O)cc1 [Kaempferide] as the compound, how does the FC read?
A: 0.1575

Q: Which FC does the source give for C[C@@H]1O[C@@H](Oc2cc(O)c3c(=O)c(O[C@@H]4O[C@H](CO)[C@H](O)[C@H](O)[C@H]4O[C@@H]4O[C@@H](C)[C@H](O)[C@@H](O)[C@H]4O)c(-c4ccc(O)cc4)oc3c2)[C@H](O)[C@H](O)[C@H]1O [Kaempferol 3-O-2″-rhamnosyl-galactoside 7-O-rhamnoside] here?
A: 2.7008

Q: Which FC does the source give for N[C@@H](CC1(C(=O)O)C=CC(O)C=C1)C(=O)O (stereo partly drawn) [L-arogenate] here?
A: 4.782

Q: For N[C@@H](CC=O)C(=O)O [L-aspartate-semialdehyde], which FC is on record?
A: 2.9298

Q: Which FC does the source give for N[C@@H](CC(=O)O)C(=O)O [L-aspartate] here?
A: 3.5705

Q: Which FC does the source give for N[C@@H](CCN[C@@H](CCN1CC[C@H]1C(=O)O)C(=O)O)C(=O)O [L-nicotianamine] here?
A: 0.3985

Q: For N[C@@H](Cc1ccccc1)C(=O)O [L-phenylalanine], which FC is on record?
A: 4.5585

Q: For COc1cc(-c2[o+]c3cc(O)cc(O)c3cc2O[C@@H]2O[C@H](CO)[C@@H](O)[C@H](O)[C@H]2O)cc(OC)c1O [Malvidin 3-O-glucoside], which FC is on record?
A: 0.4817

Q: For COc1cc([C@H]2OC[C@@H]3C(c4cc(OC)c(O)c(OC)c4)OC[C@H]23)ccc1O (stereo partly shown) [Medioresinol], which FC is on record?
A: 3.6131

Q: Which FC does the source give for O=c1c(OC2OCC(O)C(O)C2O)c(-c2cc(O)c(O)c(O)c2)oc2cc(O)cc(O)c12 (stereo not shown) [Myricetin 3-O-arabinoside] here?
A: 2.3978

Q: With CC(C)=CCNc1ncnc2c1ncn2[C@@H]1O[C@H](COP(=O)(O)O)[C@@H](O)[C@H]1O [N6-delta2-isopentenyl-adenosine 5′-monophosphate] as the compound, how does the FC read?
A: 44.241

Q: With CC(=O)N[C@H]1C(OP(=O)(O)O)O[C@H](COP(=O)(O)O)[C@@H](O)[C@@H]1O (stereo partly drawn) [N-acetyl-D-glucosamine 1,6-bisphosphate] as the compound, how does the FC read?
A: 40.636

Q: With COc1cc(/C=C/C(=O)NCCc2ccc(O)cc2)ccc1O [N-feruloyltyramine] as the compound, how does the FC read?
A: 3.3648

Q: Which FC does the source give for O=C(O)[C@H](Cc1ccccc1)NO [N-hydroxy-L-phenylalanine] here?
A: 0.1141

Q: Which FC does the source give for CSCCC[C@H](NO)C(=O)O [N-hydroxyhomomethionine] here?
A: 12.902

Q: For CSCCCCCCCC(NO)C(=O)O (stereo not shown) [N-hydroxypentahomomethionine], which FC is on record?
A: 16.92

Q: Which FC does the source give for CNCCOP(=O)(O)O [N-methylethanolamine phosphate] here?
A: 10.038

Q: With CNCCO [N-monomethylethanolamine] as the compound, how does the FC read?
A: 2.7546

Q: For COc1cc(-c2[o+]c3cc(O)cc(O)c3cc2OC2OC(C)C(O)C(O)C2O)cc(O)c1O (stereo not shown) [Petunidin 3-O-rhamnoside], which FC is on record?
A: 6.0484

Q: For Oc1ccccc1 [Phenol], which FC is on record?
A: 4.4651

Q: For Oc1cc(O)cc(/C=C/c2ccccc2)c1 [Pinosylvin], which FC is on record?
A: 0.2691

Q: With CC(=O)OC[C@H]1OC(Oc2c(-c3ccc(O)c(O)c3)oc3cc(OC4O[C@@H](C)[C@H](O)[C@@H](O)[C@H]4O)cc(O)c3c2=O)[C@H](O)[C@@H](O)[C@H]1O (stereo partly shown) [Quercetin 3-O-6″-acetyl-galactoside 7-O-rhamnoside] as the compound, how does the FC read?
A: 2.9914

Q: For CCC(C)(O)[C@@H](O)C(=O)O (stereo partly shown) [R-2,3-dihydroxy-3-methylpentanoate], which FC is on record?
A: 2.995

Q: Which FC does the source give for CC(C)(COP(=O)(O)O)[C@@H](O)C(=O)NCCC(=O)N[C@@H](CS)C(=O)O [R-4′-phosphopantothenoyl-L-cysteine] here?
A: 4.8855

Q: Which FC does the source give for C[C@@](O)(CCOP(=O)(O)O)CC(=O)O [R-mevalonate 5-phosphate] here?
A: 0.3489

Q: For CC(C)(CO)[C@@H](O)C(=O)NCCC(=O)O [R-pantothenate], which FC is on record?
A: 0.1072

Q: Which FC does the source give for O=C(O)C1=N[C@H](C(=O)O)CCC1 [S-2,3,4,5-tetrahydrodipicolinate] here?
A: 4.1401

Q: With N#C[C@@H](O)c1ccc(O)cc1 [S-4-hydroxymandelonitrile] as the compound, how does the FC read?
A: 0.3287

Q: For C[S+](CCCN)C[C@H]1O[C@@H](n2cnc3c(N)ncnc32)[C@H](O)[C@@H]1O (stereo partly shown) [S-adenosyl 3-methylthiopropylamine], which FC is on record?
A: 14.564

Q: With C[S+](CC[C@H](N)C(=O)[O-])C[C@H]1O[C@@H](n2cnc3c(N)ncnc32)[C@H](O)[C@@H]1O (stereo partly drawn) [S-adenosyl-L-methionine] as the compound, how does the FC read?
A: 7.3817

Q: Which FC does the source give for COc1ccc(C[C@H]2c3cc(OC)c(OC)cc3CCN2C)cc1O [S-laudanine] here?
A: 2.8697

Q: For C[C@@H](C=O)C(=O)O [S-methylmalonate-semialdehyde], which FC is on record?
A: 2.5477

Q: Which FC does the source give for COc1ccc(C[C@@H]2NCCc3cc(OC)c(O)cc32)cc1O [S-norreticuline] here?
A: 32.883

Q: For CC[C@H](CC[C@@H](C)[C@H]1CC[C@H]2[C@@H]3CC[C@H]4C[C@@H](OC(=O)/C=C/c5ccc(O)c(OC)c5)CC[C@]4(C)[C@H]3CC[C@]12C)C(C)C [Stigmastanol ferulate], which FC is on record?
A: 0.2817

Q: Which FC does the source give for Nc1ccc(S(=O)(=O)Nc2ccc(Cl)nn2)cc1 [Sulfachloropyridazine] here?
A: 4.1627

Q: Which FC does the source give for COc1cc(NS(=O)(=O)c2ccc(N)cc2)nc(OC)n1 [Sulfadimethoxine] here?
A: 11.488

Q: Which FC does the source give for O=c1ccn([C@@H]2O[C@H](COP(=O)(O)OP(=O)(O)O[C@H]3OC[C@@H](O)[C@H](O)[C@H]3O)[C@@H](O)[C@H]2O)c(=O)[nH]1 [UDP-alpha-D-xylose] here?
A: 13.367

Q: With N[C@@H](CCC(=O)N[C@@H](CS/C(Cc1ccccc1)=N\O)C(=O)NCC(=O)O)C(=O)O [Z-1-glutathione-S-yl-2-phenyl-acetohydroximate] as the compound, how does the FC read?
A: 19.906

Q: Which FC does the source give for Nc1ncnc2nc[nH]c12 [adenine] here?
A: 2.0623

Q: With NC(=O)NC(NC(N)=O)C(=O)O [allantoate] as the compound, how does the FC read?
A: 10.972

Q: For O=C(O)[C@H]1O[C@H](OP(=O)(O)O)[C@H](O)[C@@H](O)[C@H]1O [alpha-D-galacturonate 1-phosphate], which FC is on record?
A: 11.846

Q: Which FC does the source give for Nc1ccccc1C(=O)[O-].[Na+] [anthranilate] here?
A: 3.0289

Q: With O=C1O[C@@H]2[C@@H](O)CO[C@]2(O)C1(O)Cc1c[nH]c2ccccc12 (stereo partly shown) [ascorbigen] as the compound, how does the FC read?
A: 3.7819

Q: For O=C(O)c1ccccc1 [benzoate], which FC is on record?
A: 5.4402

Q: Which FC does the source give for C[N+](C)(C)CC=O [betaine aldehyde] here?
A: 3.5234

Q: Which FC does the source give for CCCC=O [butan-1-al] here?
A: 2.0853

Q: Which FC does the source give for c1ccc2c(-c3nccs3)c[nH]c2c1 [camalexin] here?
A: 0.2758

Q: Which FC does the source give for NC(=O)OP(=O)(O)O [carbamoyl phosphate] here?
A: 7.7098

Q: For CC1=CC(O/C=C(C)\C=C\C2=C(C)CCCC2(C)C)OC1=O (stereo not shown) [carlactone], which FC is on record?
A: 0.05293

Q: Which FC does the source give for CC(C)CCC[C@@H](C)[C@H]1CC[C@H]2[C@@H]3CC=C4C[C@@H](O)CC[C@]4(C)[C@H]3CC[C@]12C [cholesterol] here?
A: 2.816

Q: For O=C(O)/C=C(/CC(=O)O)C(=O)O [cis-aconitate], which FC is on record?
A: 0.1833

Q: With COc1cc(/C=C/C=O)ccc1O[C@@H]1O[C@H](CO)[C@@H](O)[C@H](O)[C@H]1O [coniferaldehyde glucoside] as the compound, how does the FC read?
A: 7.1826

Q: With COc1cc(/C=C/C=O)ccc1O [coniferaldehyde] as the compound, how does the FC read?
A: 6.6643

Q: Which FC does the source give for COc1cc(/C=C/CO)ccc1O [coniferyl alcohol] here?
A: 0.3782

Q: With OC[C@H]1O[C@@H](Oc2cc3c(O)cc(O)cc3[o+]c2-c2ccc(O)c(O)c2)[C@H](O)[C@@H](O)[C@@H]1O [cyanidin-3-O-beta-D-glucoside] as the compound, how does the FC read?
A: 2.0686
